Measured values from the supplement of paper PMC12819154, “High-throughput peptide-centric local stability assay extends protein–ligand identification to membrane proteins, tissues and bacteria” (Nature Structural & Molecular Biology, 2025).
Some of the results follow. Most values lie at the level of the controls, where differences are scatter.

Chains of the proteins cited; added tags and fusions are not shown. Lines headed by an entry give the natural chain unless they say otherwise; changes in a name come on top.
UniProt Q8BUV6: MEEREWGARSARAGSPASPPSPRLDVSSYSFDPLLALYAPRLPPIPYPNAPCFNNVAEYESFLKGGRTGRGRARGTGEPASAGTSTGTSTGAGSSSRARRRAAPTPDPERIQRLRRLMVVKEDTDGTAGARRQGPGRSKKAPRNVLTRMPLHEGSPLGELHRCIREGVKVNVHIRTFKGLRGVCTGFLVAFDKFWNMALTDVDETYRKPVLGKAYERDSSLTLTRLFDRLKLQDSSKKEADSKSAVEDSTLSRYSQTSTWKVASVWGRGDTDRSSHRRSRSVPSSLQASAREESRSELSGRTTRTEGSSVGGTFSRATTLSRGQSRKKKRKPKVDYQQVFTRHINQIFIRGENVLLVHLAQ
UniProt Q8BIL5, whole entry: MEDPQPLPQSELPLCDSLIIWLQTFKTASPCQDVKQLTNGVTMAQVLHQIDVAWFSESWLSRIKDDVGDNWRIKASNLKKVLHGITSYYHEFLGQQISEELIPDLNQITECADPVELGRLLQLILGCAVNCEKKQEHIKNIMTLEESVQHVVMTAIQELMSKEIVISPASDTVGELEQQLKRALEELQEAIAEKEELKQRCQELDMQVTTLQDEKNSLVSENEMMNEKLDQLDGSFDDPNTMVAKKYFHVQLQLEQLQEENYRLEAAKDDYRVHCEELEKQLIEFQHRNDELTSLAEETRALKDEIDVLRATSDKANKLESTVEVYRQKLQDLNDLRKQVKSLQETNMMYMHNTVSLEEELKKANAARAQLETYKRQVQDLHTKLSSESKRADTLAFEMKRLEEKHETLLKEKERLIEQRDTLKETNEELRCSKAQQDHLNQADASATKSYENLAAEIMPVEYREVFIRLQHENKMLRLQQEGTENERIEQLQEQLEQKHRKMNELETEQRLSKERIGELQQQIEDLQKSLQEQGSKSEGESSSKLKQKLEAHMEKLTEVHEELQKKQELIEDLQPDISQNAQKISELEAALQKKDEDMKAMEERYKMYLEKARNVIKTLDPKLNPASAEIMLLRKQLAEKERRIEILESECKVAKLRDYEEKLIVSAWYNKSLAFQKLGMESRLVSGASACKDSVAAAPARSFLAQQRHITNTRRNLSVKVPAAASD
UniProt Q8BMQ8: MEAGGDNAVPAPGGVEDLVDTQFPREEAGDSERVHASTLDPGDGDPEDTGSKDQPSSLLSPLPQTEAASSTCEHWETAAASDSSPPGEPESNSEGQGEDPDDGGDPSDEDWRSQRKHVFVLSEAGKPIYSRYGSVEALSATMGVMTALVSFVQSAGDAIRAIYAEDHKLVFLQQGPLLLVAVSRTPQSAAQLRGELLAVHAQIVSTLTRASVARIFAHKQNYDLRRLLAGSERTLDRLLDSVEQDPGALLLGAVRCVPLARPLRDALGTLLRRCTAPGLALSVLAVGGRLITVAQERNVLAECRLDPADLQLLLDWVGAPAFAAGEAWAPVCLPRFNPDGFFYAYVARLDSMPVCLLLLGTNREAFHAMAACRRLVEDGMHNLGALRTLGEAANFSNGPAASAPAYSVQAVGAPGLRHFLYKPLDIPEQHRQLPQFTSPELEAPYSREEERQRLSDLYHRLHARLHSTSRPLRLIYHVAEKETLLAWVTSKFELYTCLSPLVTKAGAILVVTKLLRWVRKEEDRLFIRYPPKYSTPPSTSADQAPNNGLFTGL
UniProt Q8BJY1: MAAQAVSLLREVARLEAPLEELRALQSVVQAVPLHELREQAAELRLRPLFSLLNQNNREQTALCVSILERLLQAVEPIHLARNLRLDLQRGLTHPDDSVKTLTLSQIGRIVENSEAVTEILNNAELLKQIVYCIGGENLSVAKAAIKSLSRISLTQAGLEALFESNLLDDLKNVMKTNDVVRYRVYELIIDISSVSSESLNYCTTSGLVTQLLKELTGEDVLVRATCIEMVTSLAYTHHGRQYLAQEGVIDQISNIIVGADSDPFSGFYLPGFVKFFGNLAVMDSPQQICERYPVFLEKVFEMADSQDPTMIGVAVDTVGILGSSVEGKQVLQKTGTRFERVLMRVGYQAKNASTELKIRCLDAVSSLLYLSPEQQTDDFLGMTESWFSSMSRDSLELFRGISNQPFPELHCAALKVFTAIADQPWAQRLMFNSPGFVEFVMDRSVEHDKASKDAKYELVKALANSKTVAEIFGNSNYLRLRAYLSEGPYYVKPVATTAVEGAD
UniProt Q8BSI6: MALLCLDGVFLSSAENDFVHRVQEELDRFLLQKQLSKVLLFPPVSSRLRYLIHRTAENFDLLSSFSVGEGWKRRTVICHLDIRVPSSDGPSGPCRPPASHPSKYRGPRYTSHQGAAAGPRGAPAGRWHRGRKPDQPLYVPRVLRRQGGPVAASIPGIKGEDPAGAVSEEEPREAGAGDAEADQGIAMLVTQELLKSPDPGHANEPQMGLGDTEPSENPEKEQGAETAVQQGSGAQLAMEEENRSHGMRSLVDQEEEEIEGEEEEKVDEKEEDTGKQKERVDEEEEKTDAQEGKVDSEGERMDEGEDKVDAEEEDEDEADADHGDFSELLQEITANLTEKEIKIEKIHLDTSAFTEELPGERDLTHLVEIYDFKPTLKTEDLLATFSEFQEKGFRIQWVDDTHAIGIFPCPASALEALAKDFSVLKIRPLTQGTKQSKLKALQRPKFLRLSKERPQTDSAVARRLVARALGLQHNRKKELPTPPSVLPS
UniProt Q8BP00: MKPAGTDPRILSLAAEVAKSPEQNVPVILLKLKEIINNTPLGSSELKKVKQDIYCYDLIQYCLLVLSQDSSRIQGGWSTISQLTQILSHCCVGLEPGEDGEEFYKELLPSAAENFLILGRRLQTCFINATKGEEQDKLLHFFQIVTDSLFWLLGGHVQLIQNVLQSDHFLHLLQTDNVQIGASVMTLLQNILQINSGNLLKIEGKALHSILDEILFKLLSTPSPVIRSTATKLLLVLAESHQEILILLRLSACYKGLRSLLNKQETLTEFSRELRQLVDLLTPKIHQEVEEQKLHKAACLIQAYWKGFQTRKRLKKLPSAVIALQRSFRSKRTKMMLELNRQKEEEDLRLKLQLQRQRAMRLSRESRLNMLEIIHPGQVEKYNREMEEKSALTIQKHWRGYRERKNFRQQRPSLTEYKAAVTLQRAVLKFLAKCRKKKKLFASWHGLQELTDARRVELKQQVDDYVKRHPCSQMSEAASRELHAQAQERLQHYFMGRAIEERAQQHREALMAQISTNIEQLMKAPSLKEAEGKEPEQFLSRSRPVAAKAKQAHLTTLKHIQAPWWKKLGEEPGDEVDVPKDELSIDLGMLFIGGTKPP
UniProt Q8BUY5: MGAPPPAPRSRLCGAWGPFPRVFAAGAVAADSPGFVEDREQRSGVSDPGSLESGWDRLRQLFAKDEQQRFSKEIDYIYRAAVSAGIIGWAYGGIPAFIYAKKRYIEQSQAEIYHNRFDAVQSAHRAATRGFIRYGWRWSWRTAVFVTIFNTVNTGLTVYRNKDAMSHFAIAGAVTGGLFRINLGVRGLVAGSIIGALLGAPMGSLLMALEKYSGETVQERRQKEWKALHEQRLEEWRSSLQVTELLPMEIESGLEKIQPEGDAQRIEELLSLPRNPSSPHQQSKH
UniProt Q8BJL1: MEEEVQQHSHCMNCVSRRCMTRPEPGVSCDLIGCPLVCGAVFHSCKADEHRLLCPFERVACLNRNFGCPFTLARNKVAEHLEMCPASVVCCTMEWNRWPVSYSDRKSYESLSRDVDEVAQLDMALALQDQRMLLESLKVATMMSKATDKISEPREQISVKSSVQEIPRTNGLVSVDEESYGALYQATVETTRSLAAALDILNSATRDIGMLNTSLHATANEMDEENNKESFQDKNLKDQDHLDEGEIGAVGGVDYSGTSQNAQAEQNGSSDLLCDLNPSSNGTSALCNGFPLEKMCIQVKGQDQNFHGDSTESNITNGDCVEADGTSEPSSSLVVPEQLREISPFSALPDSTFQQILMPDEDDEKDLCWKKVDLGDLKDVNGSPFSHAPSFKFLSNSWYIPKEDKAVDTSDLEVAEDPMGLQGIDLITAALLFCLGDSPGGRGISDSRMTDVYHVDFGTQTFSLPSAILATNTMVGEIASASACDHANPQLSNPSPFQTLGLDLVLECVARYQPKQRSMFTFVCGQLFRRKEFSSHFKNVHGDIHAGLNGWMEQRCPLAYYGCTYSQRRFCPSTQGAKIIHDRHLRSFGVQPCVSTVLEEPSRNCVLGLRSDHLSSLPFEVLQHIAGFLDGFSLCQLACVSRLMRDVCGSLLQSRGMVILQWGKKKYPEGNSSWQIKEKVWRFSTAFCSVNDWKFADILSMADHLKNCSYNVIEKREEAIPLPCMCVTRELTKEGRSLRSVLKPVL
UniProt Q8BMA5: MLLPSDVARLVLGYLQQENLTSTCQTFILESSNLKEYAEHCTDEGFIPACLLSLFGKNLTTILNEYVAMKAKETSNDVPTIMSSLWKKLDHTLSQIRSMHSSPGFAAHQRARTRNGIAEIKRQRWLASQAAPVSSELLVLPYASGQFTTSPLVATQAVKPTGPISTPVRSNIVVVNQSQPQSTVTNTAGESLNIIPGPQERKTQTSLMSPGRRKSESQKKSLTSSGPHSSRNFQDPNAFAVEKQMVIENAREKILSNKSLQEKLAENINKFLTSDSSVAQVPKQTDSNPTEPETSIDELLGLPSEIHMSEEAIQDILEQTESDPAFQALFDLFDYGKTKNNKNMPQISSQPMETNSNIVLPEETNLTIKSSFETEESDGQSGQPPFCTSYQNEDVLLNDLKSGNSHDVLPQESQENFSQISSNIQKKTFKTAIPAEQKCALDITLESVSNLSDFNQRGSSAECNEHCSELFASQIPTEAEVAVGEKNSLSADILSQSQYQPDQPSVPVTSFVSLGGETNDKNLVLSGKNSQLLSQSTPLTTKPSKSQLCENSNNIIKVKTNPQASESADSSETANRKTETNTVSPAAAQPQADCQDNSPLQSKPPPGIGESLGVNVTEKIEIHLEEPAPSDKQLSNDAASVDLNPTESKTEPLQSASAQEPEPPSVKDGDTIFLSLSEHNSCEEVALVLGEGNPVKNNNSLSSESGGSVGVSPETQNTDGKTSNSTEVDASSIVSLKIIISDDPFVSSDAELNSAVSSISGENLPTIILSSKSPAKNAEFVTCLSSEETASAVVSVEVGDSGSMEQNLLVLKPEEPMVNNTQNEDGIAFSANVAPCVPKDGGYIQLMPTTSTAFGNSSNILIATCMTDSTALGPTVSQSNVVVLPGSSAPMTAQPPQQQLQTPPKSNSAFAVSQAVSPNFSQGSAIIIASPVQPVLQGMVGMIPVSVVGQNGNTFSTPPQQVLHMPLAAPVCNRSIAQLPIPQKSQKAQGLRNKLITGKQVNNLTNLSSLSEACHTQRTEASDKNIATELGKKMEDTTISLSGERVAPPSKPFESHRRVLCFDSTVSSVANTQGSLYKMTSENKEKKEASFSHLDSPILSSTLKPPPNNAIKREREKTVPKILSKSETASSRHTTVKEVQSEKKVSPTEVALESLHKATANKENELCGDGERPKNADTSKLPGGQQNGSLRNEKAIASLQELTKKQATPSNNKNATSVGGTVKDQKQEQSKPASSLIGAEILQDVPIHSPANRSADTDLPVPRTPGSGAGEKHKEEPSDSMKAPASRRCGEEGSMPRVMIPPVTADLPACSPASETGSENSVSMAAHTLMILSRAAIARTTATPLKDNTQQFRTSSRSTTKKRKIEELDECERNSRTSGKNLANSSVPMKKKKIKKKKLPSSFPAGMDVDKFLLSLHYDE
UniProt Q8BI29: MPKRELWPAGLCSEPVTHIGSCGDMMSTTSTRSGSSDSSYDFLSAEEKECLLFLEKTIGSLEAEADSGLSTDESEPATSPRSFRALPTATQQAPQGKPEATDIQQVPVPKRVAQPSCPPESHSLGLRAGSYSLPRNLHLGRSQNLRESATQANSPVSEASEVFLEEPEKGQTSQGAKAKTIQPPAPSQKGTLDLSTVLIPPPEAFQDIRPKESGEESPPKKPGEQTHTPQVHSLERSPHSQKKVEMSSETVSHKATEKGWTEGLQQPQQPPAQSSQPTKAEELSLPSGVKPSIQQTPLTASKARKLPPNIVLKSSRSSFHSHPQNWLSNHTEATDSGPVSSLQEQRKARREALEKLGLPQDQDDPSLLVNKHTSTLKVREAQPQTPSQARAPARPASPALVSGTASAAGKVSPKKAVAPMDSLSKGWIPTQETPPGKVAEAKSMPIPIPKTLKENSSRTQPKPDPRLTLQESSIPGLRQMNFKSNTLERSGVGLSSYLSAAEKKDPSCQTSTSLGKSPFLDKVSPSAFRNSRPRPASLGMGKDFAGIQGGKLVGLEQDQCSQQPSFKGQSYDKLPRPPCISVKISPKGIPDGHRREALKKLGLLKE
UniProt Q8BS40: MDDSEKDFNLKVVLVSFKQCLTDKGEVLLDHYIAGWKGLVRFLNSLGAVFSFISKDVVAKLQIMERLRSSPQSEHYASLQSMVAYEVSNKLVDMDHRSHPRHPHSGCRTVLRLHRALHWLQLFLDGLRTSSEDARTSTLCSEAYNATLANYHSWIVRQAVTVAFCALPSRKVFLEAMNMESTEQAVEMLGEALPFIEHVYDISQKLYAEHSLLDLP

The targets below were run with CN[C@@H]1C[C@H]2O[C@@](C)([C@@H]1OC)n1c3ccccc3c3c4c(c5c6ccccc6n2c5c31)C(=O)NC4 [staurosporine] (assay: log2 fold change of tryptic peptide abundance, ligand vs vehicle (limited proteolysis) (log2 ratio); higher = more trypsin-susceptible (destabilized)). Conditions: ligand concentration: 20 uM; sample: mouse liver crude lysate; replicate design: treated separately.

| Target | log2 fold change |
| --- | --- |
| UniProt Q8BU04 (peptide sequence: FADEGTVVK, peptide start residue: 390) | 0.148 |
| UniProt Q8BN57 (peptide sequence: DSYHDSR, peptide start residue: 255) | -0.388 |
| UniProt Q8BL48 (peptide sequence: ASAAGAECELAR, peptide start residue: 689) | -0.289 |
| UniProt Q8BTS4 (peptide sequence: MQNHFGAVK, peptide start residue: 443) | -0.199 |
| UniProt Q8BJS4 (peptide sequence: RLEALAADFSSNWQK, peptide start residue: 300) | -0.279 |
| UniProt Q8BUV6 (peptide sequence: YSQTSTWK, peptide start residue: 254) | 0.752 |
| UniProt Q8BIL5 (peptide sequence: SLQETNMMYMHNTVSLEEELKK, peptide start residue: 342) | 0.538 |
| UniProt Q8BLN5 (peptide sequence: EQTGLEAHSLGLDTR, peptide start residue: 48) | -0.248 |
| UniProt Q8BJ34 (peptide sequence: IIVSFTPK, peptide start residue: 577) | 0.293 |
| UniProt Q8BMQ8 (peptide sequence: AIYAEDHK, peptide start residue: 161) | 0.396 |
| UniProt Q8BJY1 (peptide sequence: ELTGEDVLVR, peptide start residue: 215) | -0.259 |
| UniProt Q8BSI6 (peptide sequence: IRPLTQGTK, peptide start residue: 426) | -0.605 |
| UniProt Q8BUK6 (peptide sequence: LEDLGDLRR, peptide start residue: 327) | 0.786 |
| UniProt Q8BUH7 (peptide sequence: GGAPGAPQGGPR, peptide start residue: 304) | 0.196 |
| UniProt Q8BP00 (peptide sequence: LKKLPSAVIALQR, peptide start residue: 314) | 0.488 |
| UniProt Q8BUY5 (peptide sequence: YIEQSQAEIYHNRFDAVQSAHR, peptide start residue: 104) | 0.374 |
| UniProt Q8BJL1 (peptide sequence: ATDKISEPR, peptide start residue: 146) | -0.35 |
| UniProt Q8BMA5 (peptide sequence: KVSPTEVALESLHK, peptide start residue: 1144) | -0.32 |
| UniProt Q8BI29 (peptide sequence: GWIPTQETPPGK, peptide start residue: 426) | -0.248 |
| UniProt Q8BIZ0 (peptide sequence: RGPRPESFR, peptide start residue: 789) | 0.0339 |
| UniProt Q8BMG7 (peptide sequence: TFLEYLEYEKDALSIR, peptide start residue: 710) | 0.636 |
| UniProt Q8BRT1 (peptide sequence: GIHDADAEAR, peptide start residue: 268) | -0.473 |
| UniProt Q8BK06 (peptide sequence: DLQAQLQMFR, peptide start residue: 28) | 0.268 |
| UniProt Q8BS40 (peptide sequence: LVDMDHR, peptide start residue: 91) | 0.0286 |
| UniProt Q8BKN5 (peptide sequence: FTIHSDLNK, peptide start residue: 72) | -0.413 |

Copied from the list.
Entry of UniProt Q8BIZ0 (peptide sequence: RGPRPESFR, peptide start residue: 789) under log2 fold change: 0.0339
Entry of UniProt Q8BMG7 (peptide sequence: TFLEYLEYEKDALSIR, peptide start residue: 710) under log2 fold change: 0.636
